Laboratory results as given in PubChem BioAssay AID504648 (National Center for Advancing Translational Sciences (NCATS), 2011).
“And” between values parts separate entries of the source, which are not always exact repeats. Equal values may be shown once. Among all 390,000 compounds or so, about 610 (0.16%) were called active. Inconclusive means that the source gave no clear call. Such entries were picked first, then a sample of the others. Calls follow the shape of the dose curve; as a rule, active = well fitted inhibition curve with a large enough effect; inconclusive = small, poorly fitted or top-dose-only effect, or effect the other way, or another doubt; inactive = no such curve, though single readings can be large or run the other way. Potencies beside an inconclusive call are fits to weak or partial responses and may not hold up.

assay: Nrf2 qHTS screen for inhibitors: counterscreen for cytotoxicity; conditions: A549 ARE-Fluc cells, CellTiter-Fluor viability, 18-24 h; series mostly up to 46 µM
Excerpt: NIH Molecular Libraries Probe Production Network [MLPCN]
NIH Chemical Genomics Center [NCGC]
Assay Provider: Shyam Biswal, Johns Hopkins University
Nrf2 is a transcription factor that maintains cellular redox homoestasis and protects cells from xenobiotics. Nrf2 binds to the antioxidant response element (ARE) to induce gene expression of a broad spectrum of genes that encode for antioxidants. […] Finding a small molecule that act as an inhibitor of Nrf2 function would represent a novel therapeutic target that could lead to improvement in survival of patients undergoing chemo- and/or radio- therapy.
So here we implemented a counterscreen to weed out the cytotoxic compounds.
1. Shibata, T., et al., Genetic Alteration of Keap1 Confers Constitutive Nrf2 Activation and Resistance to Chemotherapy in Gallbladder Cancer. Gastroenterology, 2008.
2. Sjoblom, T., et al., The consensus coding sequences of human breast and colorectal cancers. Science, 2006. 314(5797): p. 268-74.
NCGC Assay Protocol Summary:
A concentration-response assay was performed with A549 ARE_Fluc cells which are suspended in 5% FBS OPTI-MEM. Five uL were dispensed into 1536-well white TC-treated plate using the Kalypsys dispenser to achieve a density of 5000 cells/well in all columns except column 1. The plate is incubated at 37deg C at 5% CO2 for 2 hours before 23 nL of compounds are added with the Kalypsys pin tool equipped with a 1,536-pin array containing 10-nL slotted pins (FP1S10, 0.457-mm diameter, 50.8 mm long; V&P Scientific). The control compounds Budesonide and Staurosporine are both added at a concentration of 2mM and Budesonide is also added as a 1:10 titration, starting at 200uM, to achieve dose-response. After an 18-24 hour incubation at 37deg C at 5% CO2, 5ul of medium is added to column 1. Afterwards 1ul of 5x of CellTiter-Fluor (Promega) is added to every well. The plate is then incubated at 37deg C at 5% CO2 for 30 minutes before they are read on the ViewLux (Perkin Elmer) for a fluorescent read Ex=405(10)/Em=525(10) for a 3 second exposure, 2x binning, and high gain. Then 3 uL of 3x BugLite is dispensed into all wells and the plate is incubated at ambient room temperature for 15 minutes. Afterwards another ViewLux read is performed using the clear filter to get a luminescent read with the settings of 40 second exposure, 2x binning, and high gain. Cytotoxicity is assessed through the first fluorescent read and then biochemical activity against Nrf2 is measured in the luminescent read.
Potency is read from the fitted curve at half-maximal effect.

Compound | Potency
O=C(c1ccco1)N1CCN(C(=O)c2cnn3c(C(F)(F)F)cc(-c4cccs4)nc23)CC1 | inconclusive: 2.91 µM [activator, single point]
CC(C)(C)OC(=O)N1CCC(c2nnc(SCc3ccccc3F)o2)CC1 | inconclusive: 25.9 µM [falling, single point]
CC(NC(=O)COc1ccc(-c2nnco2)cc1)c1ccc(Cl)cc1Cl (centres undefined) | inactive
CCOC(=O)CSC1=C(C#N)C(c2ccc(C)s2)CC(=O)N1 (centres undefined) | inconclusive: 8.2 µM [falling, partial curve]
CC1CCN(S(=O)(=O)c2ccc3nc(NCc4ccc(F)cc4)ccc3c2)CC1 | inconclusive: 29.1 µM [falling, single point]
COc1ccc(CCNc2cc(N3CCN(C(=O)c4ccccc4F)CC3)ccc2[N+](=O)[O-])cc1OC | inconclusive: 1.64 µM [falling, full curve]
Nc1nc(Sc2ccc([N+](=O)[O-])c3nonc23)c2[nH]cnc2n1 | inconclusive: 18.4 µM [falling, single point]
S=C(Nc1ccccc1)Nc1ccccc1Br | inconclusive: 18.4 µM [activator, partial curve, poor fit]
Cn1nnnc1Sc1ncnc2scc(-c3ccc([N+](=O)[O-])cc3)c12 | inconclusive: 29.1 µM [falling, single point] and inconclusive: 23.1 µM [falling, single point]
CN(C)CCN(C(=O)c1cccc(Cl)c1)c1nc2c(Cl)cccc2s1 | inconclusive: 5.17 µM [activator, partial curve, poor fit]
O=C1/C(=C\c2cc(Br)cc(Br)c2O)SC(=S)N1Cc1ccccc1 | inconclusive: 20.6 µM [falling, single point]
O=S(=O)(NCC1CCCO1)c1ccc(-c2ccc(S(=O)(=O)NCC3CCCO3)cc2)cc1 (centres undefined) | inactive
Cc1ccc(C(=O)CSc2nnc(-c3ccco3)n2Cc2ccccc2)cc1 | inactive
CN(Cc1ccco1)S(=O)(=O)c1nnc(NC(=O)c2ccccc2Cl)s1 | inactive
CC12CC(c3ccccc3O1)N(C(=O)c1ccco1)C(=S)N2c1ccc(F)cc1 (centres undefined) | inconclusive: 25.9 µM [falling, single point]
CCOC(=O)c1nn(-c2ccc(OC)cc2)c(=O)c2c(N)scc12 | inconclusive: 4.61 µM [falling, partial curve, poor fit]
O=C(NCCc1csc(-c2ccc(F)cc2)n1)c1cccc(F)c1 | inactive
Cc1cc(/C=N/n2cnnc2)c(C)n1-c1ccc(OCc2ccccc2F)cc1 | inconclusive: 29.1 µM [falling, single point]
CC1CCCN(CCCNC(=O)c2cc3c(Cl)nc4ccccc4c3s2)C1 (centres undefined) | inconclusive: 29.1 µM [falling, partial curve, poor fit]
COc1ccc(-c2nc(NCCCN(C)C)c3ccccc3n2)cc1 | inconclusive: 23.1 µM [falling, partial curve, poor fit]
O=C(COC(=O)CNC(=O)c1ccccc1)Nc1cc(C(F)(F)F)ccc1Cl | inactive
N#C/C(=C\C=C\c1ccccc1[N+](=O)[O-])c1nc(-c2ccc3c(c2)OCO3)cs1 | inactive

Compound | Potency
COCCN1CCn2c(nc3cc(Nc4nnc(C)c5ccccc45)ccc32)C1 | inconclusive: 23.1 µM [activator, partial curve, poor fit]
COc1ccccc1C(=O)Nc1ccc2c(c1)nc(CCNC(=O)c1ccccc1)n2C | inactive
CN(c1ccccc1)c1ccc(/C=C/[N+](=O)[O-])cc1 | inconclusive: 25.9 µM [falling, partial curve, poor fit]
CCCc1cc(=O)n2[nH]cc(-c3ccc(Cl)cc3)c2n1 | inconclusive: 18.4 µM [falling, partial curve, poor fit]
CC(=O)Oc1ccc2c(c1)Oc1cc(OC(C)=O)ccc1C21OC(=O)c2ccccc21 | inconclusive: 18.4 µM [activator, partial curve]
COc1ccc(/C=C2\SC(=S)N(CCC(=O)Nc3ccc(C(=O)O)cc3)C2=O)cc1OC | inconclusive: 20.6 µM [falling, partial curve, poor fit]
CC(=O)NC1(c2nnnn2CCOC(=O)Nc2ccc(Cl)cc2)CCCCC1 | inconclusive: 32.6 µM [falling, partial curve, poor fit]
COc1cccc(-c2nc(CS(=O)(=O)CC(=O)NCCc3ccc(Cl)cc3)c(C)o2)c1 | inconclusive: 23.1 µM [falling, partial curve, poor fit]
CCOC(=O)c1oc2ccccc2c1COC(=O)C(C)NC(=O)c1ccco1 (centres undefined) | inconclusive: 6.51 µM [activator, partial curve, poor fit]
CCOc1cc(/C=C2\NC(=O)NC2=O)cc([N+](=O)[O-])c1O | inconclusive: 20.6 µM [falling, partial curve, poor fit]
O=C(NCCOc1ccccc1Cl)c1cc(F)c(F)cc1Cl | inactive
COc1cccc(C2CC(c3c(-c4ccccc4)c4cc(Cl)ccc4[nH]c3=O)=NN2S(C)(=O)=O)c1OC (centres undefined) | inconclusive: 29.1 µM [falling, single point]
CC1(C)Cc2nc3sc4c(SCC(=O)NCc5ccco5)ncnc4c3cc2CO1 | inconclusive: 5.17 µM [falling, partial curve, poor fit]
CCCc1cc(=O)oc2c(C)c(O)c(CN3CCCCC3)cc12 | inconclusive: 7.31 µM [activator, partial curve]
CCN(Cc1ccccc1)C(=O)Cn1c(=O)n(-c2ccc(Cl)c(Cl)c2)c(=O)c2c(C)c(C(=O)N(C)C)sc21 | inconclusive: 25.9 µM [falling, partial curve, poor fit]
COc1ccc(C(=O)c2c(C)oc3cc([N+](=O)[O-])c(O)c([N+](=O)[O-])c23)cc1 | inconclusive: 18.4 µM [falling, single point]
c1cncc(-c2nc(NCc3ccc4c(c3)OCO4)c3ccccc3n2)c1 | inconclusive: 10.3 µM [activator, partial curve, poor fit]
C(=N\NCc1ccccc1)/c1ccc2ncccc2c1 | inactive
COC1=C(N)C(=O)c2nc(-c3nc(C(=O)O)c(C)c(-c4ccc(OC)c(OC)c4O)c3N)ccc2C1=O | active: 2.59 µM
COC(=O)c1cccc(NC(=O)C2C3CCC(C3)C2C(=O)O)c1 (centres undefined) | inconclusive: 5.17 µM [activator, full curve, poor fit]
Cc1ccnc(NC(c2ccsc2)c2ccc3ccc(C)nc3c2O)c1 (centres undefined) | inactive
CCOc1ccc(S(=O)(=O)n2ccc(C)n2)c2ccccc12 | inconclusive: 32.6 µM [falling, partial curve, poor fit]

Compound | Potency
COc1cc2c(cc1OC)C(c1cc3cc4c(cc3[nH]c1=O)OCO4)N(C(=O)C1CC1)CC2 (centres undefined) | inactive
CC1CCN(C(=O)COC(=O)c2cc([N+](=O)[O-])ccc2N2CCOCC2)CC1 | inconclusive: 23.1 µM [falling, partial curve, poor fit]
CSCCC(=O)N1CC[C@@H](N2CCN(c3ccccc3F)CC2)[C@H](O)C1 | inconclusive: 29.1 µM [falling, single point]
CNc1ccc(NC(C)=O)cc1[N+](=O)[O-] | inconclusive: 16.4 µM [falling, single point]
CN(C)CCCN(Cc1ccccc1)C(=S)Nc1cccc(C(F)(F)F)c1 | inactive
Cc1ccnc(NC(=O)CCCOc2cc(=O)n(C)c3ccccc23)c1 | inconclusive: 6.51 µM [falling, single point]
COc1ccc(/C=C2/C(=O)ON=C2C)cc1Br | inactive
Cc1cccc(Cn2c(SCc3ccc(C(=O)NCc4ccccc4)cc3)nc3cccnc32)c1 | inactive
Cc1ccc(C)c(S(=O)(=O)NCc2ccc(C(=O)N3CCCCCC3)cc2)c1 | inconclusive: 13 µM [falling, partial curve]
CCOC(=O)c1c(NC(=O)COc2ccc(CC)cc2)sc2c1CCCC2 | inconclusive: 10.3 µM [activator, partial curve, poor fit]
CC1CCC2(CC1)Nc1ccccc1C(=O)N2c1ccccc1 (centres undefined) | inactive
Cc1ccc2c(=O)c(C(=O)c3ccccc3)cn(CC(=O)Nc3ccc(C)c(Cl)c3)c2n1 | inconclusive: 14.6 µM [falling, partial curve, poor fit]
Cn1c(C(=O)OC(C(=O)NCc2ccco2)c2ccncc2)cc2sccc21 (centres undefined) | inactive
CC[C@H](C)Cc1cn([C@@H](CCCN=C(NC(=O)OC(C)(C)C)NC(=O)OC(C)(C)C)C(=O)NCCCCCCCCCCC(=O)N2CCN(C(=O)OC(C)(C)C)CC2)nn1 | inconclusive: 23.1 µM [falling, partial curve, poor fit]
CCOc1ccc(NC(=S)NNc2ccnc3cc(Cl)ccc23)cc1 | inconclusive: 23.1 µM [falling, partial curve, poor fit]
O=C(Nc1c(C(=O)O)[nH]c2ccc(F)cc12)c1cccc(C(F)(F)F)c1 | inactive
Oc1[nH]c2ccc(Br)cc2c1N=Nc1ccc(C(F)(F)F)cn1 | inconclusive: 23.1 µM [falling, single point]
Cc1ccc(C(C(=O)NC(C)(C)C)N(C(=O)CCC(=O)Nc2ccccn2)c2ccccc2F)cc1 (centres undefined) | inactive
Cc1ccc(-c2csc3ncnc(SCC(=O)Nc4nnc(C)s4)c23)cc1 | inactive
CCc1ccc(CNC(=O)C2CCN(c3nnc(C)c4c(C)n(-c5ccc(C)cc5)nc34)CC2)cc1 | inconclusive: 29.1 µM [falling, single point]

Quoted from the listing.
Cc1ccc(-c2csc3ncnc(SCC(=O)Nc4nnc(C)s4)c23)cc1 – Potency: inactive
Cc1ccc(C)c(S(=O)(=O)NCc2ccc(C(=O)N3CCCCCC3)cc2)c1 – Potency: inconclusive: 13 µM [falling, partial curve]
Cn1c(C(=O)OC(C(=O)NCc2ccco2)c2ccncc2)cc2sccc21 (centres undefined) – Potency: inactive
Cc1ccc(C(C(=O)NC(C)(C)C)N(C(=O)CCC(=O)Nc2ccccn2)c2ccccc2F)cc1 (centres undefined) – Potency: inactive
